Measured values as given in patent US7335671B2, “Arylcycloalkyl-substituted alkanoic acid derivatives, processes for their preparation and their use as pharmaceuticals” (Sanofi-Aventis Deutschland GmbH, priority 2003, dated 2008).
Some results were stated once for a whole list of compounds, not compound by compound.

biological target: T1, PPARalpha (Homo sapiens, UniProt Q07869); test: Cellular PPARalpha assay (stably transfected HEK luciferase reporter cell line); type: cell-based; settings: units printed in the value: nM to μM; read-out: PPARalpha EC50 values (range over the examples)
T1 construct: human PPARalpha receptor (amino acids S167-Y468); expressed in transfected cells; host or cells: HEK (human embryo kidney) cells, stably transfected; pcDNA3 vector, CMV promoter
T1 sequence (Q07869 167-468): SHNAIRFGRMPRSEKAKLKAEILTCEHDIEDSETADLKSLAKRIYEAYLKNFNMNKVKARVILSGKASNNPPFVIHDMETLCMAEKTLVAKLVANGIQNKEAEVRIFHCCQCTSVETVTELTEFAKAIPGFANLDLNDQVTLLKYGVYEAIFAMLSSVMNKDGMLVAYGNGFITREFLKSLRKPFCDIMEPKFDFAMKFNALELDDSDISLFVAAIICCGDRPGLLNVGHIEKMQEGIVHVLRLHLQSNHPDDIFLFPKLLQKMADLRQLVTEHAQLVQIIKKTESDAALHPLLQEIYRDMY
Method: Determination of EC50 Values of PPAR agonists in the Cellular PPARalpha Assay
The potency of substances which bind to human PPARA and activate in an agonistic manner is analyzed using a stably transfected HEK cell line (HEK =human embryo kidney) which is referred to here as PPARalpha reporter cell line. It contains two genetic elements, a luciferase reporter element (pδM-GAL4-Luc-Zeo) and a PPARalpha fusion protein (GR-GAL4-humanPPARα-LBD) which mediates expression of the luciferase reporter element depending on a PPARalpha ligand. The stably and constitutively expressed fusion protein GR-GAL4-humanPPARalpha-LBD binds in the cell nucleus of the PPARalpha reporter cell line via the GAL4 protein portion to the GAL4 DNA binding motifs 5′-upstream of the luciferase reporter element which is integrated in the genome of the cell line. There is only little expression of the luciferase reporter gene without addition of a PPARalpha ligand if fatty acid-depleted fetal calf serum (cs-FCS) is used in the assay. PPARα ligands bind and activate the PPARα fusion protein and thereby bring about expression of the luciferase reporter gene. The luciferase which is formed can be detected by means of chemiluminescence via an appropriate substrate.
The PPARalpha reporter cell line was prepared in 2 stages. Firstly, the luciferase reporter element was constructed and stably transfected into HEK cells. For this purpose, five binding sites of the yeast transcription factor GAL4 (each 5′-CGGAGTACTGTCCTCCGAG-3′) (SEQ ID No. 1) were cloned in 5′-upstream of a 68 bp-long minimal MMTV promoter (Genbank Accession # V01 175). The minimal MMTV promoter section contains a CCAAT box and a TATA element in order to enable efficient transcription by RNA polymerase 11. The cloning and sequencing of the GAL4-MMTV construct took place in analogy to the description of Sambrook J. et. al. (Molecular cloning, Cold Spring Harbor Laboratory Press, 1989). Then the complete Photinus pyralis gene (Genbank Accession # M15077) was cloned in 3′-downstream of the GAL4-MMTV element. After sequencing, the luceriferase reporter element consisting of five GAL4 binding sites, MMTV promoter and luciferase gene was recloned into a plasmid which confers zeocin resistance in order to obtain the plasmid pδM-GAL4-Luc-Zeo. This vector was transfected into HEK cells in accordance with the statements in Ausubel, F. M. et al. (Current protocols in molecular biology, Vol. 1-3, John Wiley & Sons, Inc., 1995).
In a second step, the PPARalpha fusion protein (GR-GAL4-humanPPARalpha-LBD was introduced into the stable cell clone described. For this purpose, initially the cDNA coding for the N-terminal 76 amino acids of the glucocorticoid receptor (Genbank Accession # P04150) was linked to the cDNA section coding for amino acids 1-147 of the yeast transcription factor GAL4 (Genbank Accession # P04386). The cDNA of the ligand-binding domain of the human PPARalpha receptor (amino acids S167-Y468; Genbank Accession # S74349) was cloned in at the 3′-end of this GR-GAL4 construct. The fusion construct prepared in this way (GR-GAL4-humanPPARalpha-LBD) was recloned into the plasmid pcDNA3 (from Invitrogen) in order to enable constitutive expression therein by the cytomegalovirus promoter. This plasmid was linearized with a restriction endonuclease and stably transfected into the previously described cell clone containing the luciferase reporter element. The finished PPARalpha reporter cell line which contains a luciferase reporter element and constitutively expresses the PPARalpha fusion protein (GR-GAL4-human PPARalpha-LBD) was isolated by selection with zeocin (0.5 mg/ml) and G418 (0.5 mg/ml).
The activity of PPARalpha agonists is determined in a 3-day assay which is described below: […]

SMILES | EC50 [nM]
Cc1cccc(-c2nc(CO[C@H]3CCC[C@@H](OCC(OCc4ccc(C(C)(C)C)cc4)C(=O)O)C3)c(C)o2)c1 (stereo partly drawn) [Example 18, 3-[(1R,3S)-3-(5-Methyl-2-m-tolyloxazol-4-ylmethoxy)cyclohexyloxy]-2-(4-tert-butylbenzyloxy)propanoic acid] | ≥ 0.6
Cc1oc(-c2ccc(F)cc2)nc1CO[C@H]1CCC[C@@H](OCCC(C)C(=O)O)C1 (stereo partly drawn) [Example 4, 4-{3-[2-(4-fluorophenyl)-5-methyloxazol-4-ylmethoxy]cyclohexyloxy}-2-methyl-butanoic acid] | ≥ 0.6
CCCOC(CO[C@@H]1CCC[C@H](OCc2nc(-c3ccccc3)oc2C)C1)C(=O)O (stereo partly drawn) [Example 42, 3-[(1R,3S)-3-(5-Methyl-2-phenyloxazol-4-ylmethoxy)cyclohexyloxy]-2-propoxy-propionic acid] | ≥ 0.6
COCC(CO[C@@H]1CCC[C@H](OCc2nc(-c3cccc(C)c3)oc2C)C1)C(=O)O (stereo partly drawn) [Example 8, (1R′,3S′)-2R/S-Methoxymethyl-3-[3-(5-methyl-2-m-tolyloxazol-4-ylmethoxy)cyclo-hexyloxy]propionic acid] | ≥ 0.6
Cc1oc(-c2ccc(C(C)C)cc2)nc1CO[C@H]1CCC[C@@H](OC[C@@H](OCc2ccc(C(F)(F)F)cc2)C(=O)O)C1 [Example 79, (R)-3-[(1R,3S)-3-(5-Methyl-2-(4-isopropylphenyl)oxazol-4-ylmethoxy)cyclohexyl-oxy]-2-(4-trifluoromethylbenzyloxy)propionic acid] | ≥ 0.6
CCCOC(CO[C@@H]1CCC[C@H](OCc2nc(-c3cccc(OC)c3)oc2CC)C1)C(=O)O (stereo partly drawn) [Example 53, 3-{(1R,3S)-3-[5-Ethyl-2-(3-methoxyphenyl)oxazol-4-ylmethoxy]cyclohexyloxy}-2-propoxypropionic acid] | ≥ 0.6
CCc1oc(-c2ccccc2C(F)(F)F)nc1CO[C@H]1CCC[C@@H](OCC(OC)C(=O)O)C1 (stereo partly drawn) [Example 40, 2-Methoxy-3-{(1R,3S)-3-[5-ethyl-2-(2-trifluoromethylphenyl)oxazol4-ylmethoxy]-cyclohexyloxy}propionic acid] | ≥ 0.6
Cc1oc(-c2ccc(F)cc2)nc1CO[C@H]1CCC[C@@H](OCCCC(=O)O)C1 [Example 3, 4-{3-[2-(4-fluorophenyl)-5-methyloxazol-4-ylmethoxy]cyclohexyloxy}butanoic acid] | ≥ 0.6
CCOC(CO[C@@H]1CCC[C@H](OCc2nc(-c3cccc(C(F)(F)F)c3)oc2C)C1)C(=O)O (stereo partly drawn) [Example 57, 2-Ethoxy-3-{(1R,3S)-3-[5-methyl-2-(3-trifluoromethylphenyl)oxazol-4-ylmethoxy]-cyclohexyloxy}propionic acid] | ≥ 0.6
COC(CO[C@@H]1CCC[C@H](OCc2nc(-c3ccc4ccccc4c3)oc2C)C1)C(=O)O (stereo partly drawn) [Example 35, 2-Methoxy-3-{(1R,3S)-3-[5-methyl-2-(3-naphthyl)oxazol-4-ylmethoxy]cyclohexyl-oxy}propionic acid] | ≥ 0.6
COC(CO[C@@H]1CCC[C@H](OCc2nc(-c3ccc(C)cc3C)oc2C)C1)C(=O)O (stereo partly drawn) [Example 36, 2-Methoxy-3-{(1R,3S)-3-[5-methyl-2-(2,4-dimethylphenyl)oxazol-4-ylmethoxy]-cyclohexyloxy}propionic acid] | ≥ 0.6
CCc1oc(-c2ccc(C)cc2)nc1CO[C@H]1CCC[C@@H](OCC(OC)C(=O)O)C1 (stereo partly drawn) [Example 39, 2-Methoxy-3-{(1R,3S)-3-[5-ethyl-2-(4-methylphenyl)oxazol-4-ylmethoxy]cyclo-hexyloxy}propionic acid] | ≥ 0.6
Cc1cccc(-c2nc(CO[C@H]3CCC[C@@H](OCC(CN(C)CCc4ccccc4)C(=O)O)C3)c(C)o2)c1 (stereo partly drawn) [Example 6] | ≥ 0.6
C=C(C)COC(CO[C@@H]1CCC[C@H](OCc2nc(-c3cccc(C)c3)oc2C)C1)C(=O)O (stereo partly drawn) [Example 26, 3-[(1R,3S)-3-(5-Methyl-2-m-tolyloxazol-4-ylmethoxy)cyclohexyloxy]-2-(2-methyl-2-propenyloxy)propionic acid] | ≥ 0.6
C=CCOC(CO[C@@H]1CCC[C@H](OCc2nc(-c3cccc(C)c3)oc2C)C1)C(=O)O (stereo partly drawn) [Example 24, 3-[(1R,3S)-3-(5-Methyl-2-m-tolyl-oxazol-4-ylmethoxy)cyclohexyloxy]-2-(2-propenyl-oxy)propionic acid] | ≥ 0.6
CCOC(CO[C@@H]1CCC[C@H](OCc2nc(-c3ccc(C)cc3C)oc2C)C1)C(=O)O (stereo partly drawn) [Example 63, 2-Ethoxy-3-{(1R,3S)-3-[5-methyl-2-(2,4-dimethylphenyl)oxazol4-ylmethoxy]cyclo-hexyloxy}propionic acid] | ≥ 0.6
CCCOC(CO[C@@H]1CCC[C@H](OCc2nc(-c3ccc(C(F)(F)F)cc3)oc2C)C1)C(=O)O (stereo partly drawn) [Example 46, 3-{(1R,3S)-3-[5-Methyl-2-(4-trifluoromethylphenyl)oxazol-4-ylmethoxy]cyclohexyl-oxy}-2-propoxypropionic acid] | ≥ 0.6
COC(CO[C@@H]1CCC[C@H](OCc2nc(-c3c(C)cccc3C)oc2C)C1)C(=O)O (stereo partly drawn) [Example 33, 2-Methoxy-3-{(1R,3S)-3-[5-methyl-2-(2,6-dimethylphenyl)oxazol-4-ylmethoxy]-cyclohexyloxy}propionic acid] | ≥ 0.6
Cc1oc(-c2ccc(OC(F)(F)F)cc2)nc1CO[C@H]1CCC[C@@H](OC[C@@H](OCc2ccc(C(F)(F)F)cc2)C(=O)O)C1 [Example 82, (R)-3-[(1R,3S)-3-(5-Methyl-2-(4-trifluoromethoxyphenyl)oxazol-4-ylmethoxy)cyclo-hexyloxy]-2-(4-trifluoromethylbenzyloxy)propionic acid] | ≥ 0.6
COC(CO[C@@H]1CCC[C@H](OCc2nc(-c3ccccc3C(F)(F)F)oc2C)C1)C(=O)O (stereo partly drawn) [Example 34, 2-Methoxy-3-{(1R,3S)-3-[5-methyl-2-(2-trifluoromethylphenyl)oxazol-4-ylmethoxy]-cyclohexyloxy}propionic acid] | ≥ 0.6
COc1cccc(-c2nc(CO[C@H]3CCC[C@@H](OCC(OCC(C)C)C(=O)O)C3)c(C)o2)c1 (stereo partly drawn) [Example 86, 3-{(1R,3S)-3-[5-Methyl-2-(3-methoxyphenyl)oxazol-4-ylmethoxy]cyclohexyloxy}-2-isobutoxypropionic acid] | ≥ 0.6
C#CCOC(CO[C@@H]1CCC[C@H](OCc2nc(-c3cccc(C)c3)oc2C)C1)C(=O)O (stereo partly drawn) [Example 22, 3-[(1R,3S)-3-(5-Methyl-2-m-tolyloxazol-4-ylmethoxy)cyclohexyloxy]-2-(2-propynyl-oxy)propionic acid] | ≥ 0.6
CCc1oc(-c2c(C)cccc2C)nc1CO[C@H]1CCC[C@@H](OCC(OC)C(=O)O)C1 (stereo partly drawn) [Example 41, 2-Methoxy-3-{(1R,3S)-3-[5-ethyl-2-(2,6-dimethylphenyl)oxazol4-ylmethoxy]cyclo-hexyloxy}propionic acid] | ≥ 0.6
Cc1oc(-c2cccc(C(F)(F)F)c2)nc1CO[C@H]1CCC[C@@H](OC[C@@H](OCc2ccc(C(F)(F)F)cc2)C(=O)O)C1 [Example 77, (R)-3-[(1R,3S)-3-(5-Methyl-2-(3-trifluoromethylphenyl)oxazol4-ylmethoxy)cyclo-hexyloxy]-2-(4-trifluoromethylbenzyloxy)propionic acid] | ≥ 0.6
